Laboratory results published in publication PMC7353009, “Identification of Substrates of Cytoplasmic Peptidyl-Prolyl Cis/Trans Isomerases and Their Collective Essentiality in Escherichia Coli” (International Journal of Molecular Sciences, 2020).

B1: GrxB (protein, UniProt P0AC59 1-215)
chain: MKLYIYDHCPYCLKARMIFGLKNIPVELHVLLNDDAETPTRMVGQKQVPILQKDDSRYMPESMDIVHYVDKLDGKPLLTGKRSPAIEEWLRKVNGYANKLLLPRFAKSAFDEFSTPAARKYFVDKKEASAGNFADLLAHSDGLIKNISDDLRALDKLIVKPNAVNGELSEDDIQLFPLLRNLTLVAGINWPSRVADYRDNMAKQTQINLLSSMAI
B2: YrdA (protein, UniProt P0A9W9 1-184)
chain: MSDVLRPYRDLFPQIGQRVMIDDSSVVIGDVRLADDVGIWPLVVIRGDVHYVQIGARTNIQDGSMLHVTHKSSYNPDGNPLTIGEDVTVGHKVMLHGCTIGNRVLVGMGSILLDGAIVEDDVMIGAGSLVPQNKRLESGYLYLGSPVKQIRPLSDEEKAGLRYSANNYVKWKDEYLDQGNQTQP
B3: SeqA (protein, UniProt P0AFY8 1-181)
chain: MKTIEVDDELYSYIASHTKHIGESASDILRRMLKFSAASQPAAPVTKEVRVASPAIVEAKPVKTIKDKVRAMRELLLSDEYAEQKRAVNRFMLLLSTLYSLDAQAFAEATESLHGRTRVYFAADEQTLLKNGNQTKPKHVPGTPYWVITNTNTGRKCSMIEHIMQSMQFPAELIEKVCGTI

biological target: PpiC F81A::3xFLAG (chromosomal) (E. coli); test: co-IP; cell extracts of strains with chromosomal single-copy 3xFLAG-tagged PpiC, ANTI-FLAG M2 gel, 12 h at 4 °C, native elution with 3xFLAG peptide, SDS-PAGE and silver staining

binding, no binding:
B1
B2
B3

Results are given in words; binding and its absence hold for the method and conditions named. Binding seen in cells or lysates may run through a third protein.
